Data as given in PMC7547737.
Results are given in words; binding and its absence hold for the method and conditions named. In cells and extracts the contact can be indirect. Some results given as binding are weak or reduced against the parent protein; the word gives no strength.

Chains of the proteins cited; added tags and fusions are not shown.
UniProt P31749: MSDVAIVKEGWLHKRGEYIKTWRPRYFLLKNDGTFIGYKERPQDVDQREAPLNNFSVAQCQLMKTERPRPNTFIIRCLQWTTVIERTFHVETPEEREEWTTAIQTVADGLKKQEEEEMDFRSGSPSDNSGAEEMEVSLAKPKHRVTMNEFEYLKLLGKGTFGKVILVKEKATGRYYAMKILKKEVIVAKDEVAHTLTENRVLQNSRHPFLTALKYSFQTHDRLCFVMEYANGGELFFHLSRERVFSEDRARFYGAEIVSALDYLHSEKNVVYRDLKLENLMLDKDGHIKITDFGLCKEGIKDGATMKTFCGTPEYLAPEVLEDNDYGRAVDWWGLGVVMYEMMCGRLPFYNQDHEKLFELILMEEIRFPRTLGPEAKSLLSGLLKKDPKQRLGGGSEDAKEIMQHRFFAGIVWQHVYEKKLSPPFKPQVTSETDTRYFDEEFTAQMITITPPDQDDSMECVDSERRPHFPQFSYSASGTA
UniProt P62714: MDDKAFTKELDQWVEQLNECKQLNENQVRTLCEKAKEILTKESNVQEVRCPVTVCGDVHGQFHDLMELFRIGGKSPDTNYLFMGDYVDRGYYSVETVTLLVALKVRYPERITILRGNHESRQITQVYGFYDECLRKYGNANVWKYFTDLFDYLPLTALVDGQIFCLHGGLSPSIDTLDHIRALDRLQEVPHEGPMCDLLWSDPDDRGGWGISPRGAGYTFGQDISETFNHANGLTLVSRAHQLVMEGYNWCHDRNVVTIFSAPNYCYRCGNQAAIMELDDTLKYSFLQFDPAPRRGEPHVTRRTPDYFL

Target: FLAG-tagged wt AKT1 (UniProt P31749)
Assay: co-IP; SK-Br3 cells transfected with FLAG-tagged AKT constructs, starved with U0126, treated with TZ 20 min, cross-linked with DSP; anti-FLAG magnetic beads, 3 h at 4 °C; Western blot, amounts normalised on precipitated protein and input

## Ser/Thr-protein phosphatase 2A (PP2A)-catalytic subunit beta isoform (from UniProt P62714 1-309) (enzyme)
  binding: binds
